Measurements taken from paper PMC8805157 (2021).
Changes are numbered by the printed parent chain. Names and notes keep the numbering of the source. Results are given in words; binding and its absence hold for the method and conditions named. For some assays here: Binding seen in cells or lysates may run through a third protein. Sequences can lack the tags named with a protein. Some entries that bind do so weakly or less than the wild type.

B1: AD-Atg11 a/d-2 (I548E/Y551E) (protein, UniProt Q12527 1-1178)
chain: MADADEYSTAPTQQEITPLQTTATIINAISGECITTNVDFFVSLDKFKQFIARKWKIPPDQLLILLPYGNKLKPSMFKELLINRSFTLNDFYVYDRRLFSLVSKPTPTNLLTSKDSNPMNSPNSNDLTETLEYLIKNSHISQYQGSDTIMIKPMPSPLEDADVDLSRLNYHSVTSLLTTNLGWLSALEIDVHYFKSLIPDIIAHIKRIFDGLTVCSQYLKLYCFDVESLYNSNVQFLNQLVDNGMTSKWEKCFNDTLSKLTALEGDSLQKFINIESLLENEKSVKILNHSINGKLNKIKREIDENASFRDIITVNIDRLRQMFTPNESKFELEDQMAESFEVLVSEMRTRSRNVLDKEEEEFNSQEFLKSMNVMLEKDKKESVKTLFTISQALYSQIGELIDLKKSLQKHAVAILGNIAFTQMEILGIKRLLLNECNKDLELYKKYEVEFAQVEDLPLIYGLYLIEKYRRLSWFQQILSFISNFNQDLELFKQNELRTRNKWVKNFGSIATVFCEDLLSSSDFKRLNEYHSHTSPPNEDEEDENENSEANERQDLVKVSQAIDNYMTQIKETDVSEPIIDLLSKTLFETKRFHIIYSNFKNNNNNSSNGNSISPEGSIALKSDDVVKGYKTRIKKLESLLHEFQYSDIGHWPQGVLNTHLKPFRGSATSINKKKFLGASVLLEPANISEVNIDSVSQANNHQIQELESNVDDLLHQLQLLKEENNRKSMQISEMGKKISDLEVEKTAYRETLTNLNQELARLTNEEQSHRTEIFTLNASFKKQLNDIISQDNEKIEKLTGDYDDVSKSRERLQMDLDESNKKHEQEVNLLKADIERLGKQIVTSEKSYAETNSSSMEKGEKFETIPLAEDPGRENQISAYTQTLQDRIFDIISTNIFILENIGLLLTFDNNNNIQIRRVKGLKKGTAQSNILDESTQMLDAHDNSLIKSPVFQKLKDEYELIKSVANGSEKDTQQSIFLGNITQLYDNKLYEVAVIRRFKDIETLAKKLTKENKIKRTLLERFQREKVTLRNFQIGDLALFLPTRENVNSVGSMSSSTSSLSSSFSSVDLSTPPPLDAMSIQSSPSVIHSNVINQASISGRDKNKLMRPWAAFTAFEESTRYFLKDEKGLTKGKEWFVGRIVTLEHFVADSPSNNPFRLPKGSVWFQVTAVVVSYQGV
B2: AD-Atg11 a/d-3 (L555E/V558E) (protein, UniProt Q12527 1-1178)
chain: B1 chain with E548I, E551Y, L555E, V558E
B3: AD-Atg11 I562Q (protein, UniProt Q12527 1-1178)
chain: B1 chain with E548I, E551Y, I562Q
B4: AD-Atg11 I562A (protein, UniProt Q12527 1-1178)
chain: B1 chain with E548I, E551Y, I562A
B5: AD-Atg11 (full length, wild type) (protein, UniProt Q12527 1-1178)
chain: B1 chain with E548I, E551Y
B6: AD-Atg11 a/d-4 (I562E/Y565E) (protein, UniProt Q12527 1-1178)
chain: B1 chain with E548I, E551Y, I562E, Y565E
B7: AD-Atg11 Y565E (protein, UniProt Q12527 1-1178)
chain: B1 chain with E548I, E551Y, Y565E
B8: AD-Atg11 Y565Q (protein, UniProt Q12527 1-1178)
chain: B1 chain with E548I, E551Y, Y565Q
B9: AD-Atg11 Y565A (protein, UniProt Q12527 1-1178)
chain: B1 chain with E548I, E551Y, Y565A
B10: GFP-Atg11^Y565E (protein, UniProt Q12527 1-1178)
chain: B1 chain with E548I, E551Y, Y565E
B11: GFP-Atg11ΔCC2 (protein, UniProt Q12527)
chain: MADADEYSTAPTQQEITPLQTTATIINAISGECITTNVDFFVSLDKFKQFIARKWKIPPDQLLILLPYGNKLKPSMFKELLINRSFTLNDFYVYDRRLFSLVSKPTPTNLLTSKDSNPMNSPNSNDLTETLEYLIKNSHISQYQGSDTIMIKPMPSPLEDADVDLSRLNYHSVTSLLTTNLGWLSALEIDVHYFKSLIPDIIAHIKRIFDGLTVCSQYLKLYCFDVESLYNSNVQFLNQLVDNGMTSKWEKCFNDTLSKLTALEGDSLQKFINIESLLENEKSVKILNHSINGKLNKIKREIDENASFRDIITVNIDRLRQMFTPNESKFELEDQMAESFEVLVSEMRTRSRNVLDKEEEEFNSQEFLKSMNVMLEKDKKESVKTLFTISQALYSQIGELIDLKKSLQKHAVAILGNIAFTQMEILGIKRLLLNECNKDLELYKKYEVEFAQVEDLPLIYGLYLIEKYRRLSWFQQILSFISNFNQDLELFKQNELRTRNKWVKNFGSIATVFCEDLLSSSDFKRLNEYHSHTSPPIIDLLSKTLFETKRFHIIYSNFKNNNNNSSNGNSISPEGSIALKSDDVVKGYKTRIKKLESLLHEFQYSDIGHWPQGVLNTHLKPFRGSATSINKKKFLGASVLLEPANISEVNIDSVSQANNHQIQELESNVDDLLHQLQLLKEENNRKSMQISEMGKKISDLEVEKTAYRETLTNLNQELARLTNEEQSHRTEIFTLNASFKKQLNDIISQDNEKIEKLTGDYDDVSKSRERLQMDLDESNKKHEQEVNLLKADIERLGKQIVTSEKSYAETNSSSMEKGEKFETIPLAEDPGRENQISAYTQTLQDRIFDIISTNIFILENIGLLLTFDNNNNIQIRRVKGLKKGTAQSNILDESTQMLDAHDNSLIKSPVFQKLKDEYELIKSVANGSEKDTQQSIFLGNITQLYDNKLYEVAVIRRFKDIETLAKKLTKENKIKRTLLERFQREKVTLRNFQIGDLALFLPTRENVNSVGSMSSSTSSLSSSFSSVDLSTPPPLDAMSIQSSPSVIHSNVINQASISGRDKNKLMRPWAAFTAFEESTRYFLKDEKGLTKGKEWFVGRIVTLEHFVADSPSNNPFRLPKGSVWFQVTAVVVSYQGV

molecular target: T1, BD-Atg9 (S. cerevisiae) (UniProt Q12142); experiment: two-hybrid; BD-Atg9 (bait) with AD-Atg11 and mutants (prey) in the MKO strain; growth on SMD -ura, -leu, -his + 1 mM 3AT plates
T1 sequence: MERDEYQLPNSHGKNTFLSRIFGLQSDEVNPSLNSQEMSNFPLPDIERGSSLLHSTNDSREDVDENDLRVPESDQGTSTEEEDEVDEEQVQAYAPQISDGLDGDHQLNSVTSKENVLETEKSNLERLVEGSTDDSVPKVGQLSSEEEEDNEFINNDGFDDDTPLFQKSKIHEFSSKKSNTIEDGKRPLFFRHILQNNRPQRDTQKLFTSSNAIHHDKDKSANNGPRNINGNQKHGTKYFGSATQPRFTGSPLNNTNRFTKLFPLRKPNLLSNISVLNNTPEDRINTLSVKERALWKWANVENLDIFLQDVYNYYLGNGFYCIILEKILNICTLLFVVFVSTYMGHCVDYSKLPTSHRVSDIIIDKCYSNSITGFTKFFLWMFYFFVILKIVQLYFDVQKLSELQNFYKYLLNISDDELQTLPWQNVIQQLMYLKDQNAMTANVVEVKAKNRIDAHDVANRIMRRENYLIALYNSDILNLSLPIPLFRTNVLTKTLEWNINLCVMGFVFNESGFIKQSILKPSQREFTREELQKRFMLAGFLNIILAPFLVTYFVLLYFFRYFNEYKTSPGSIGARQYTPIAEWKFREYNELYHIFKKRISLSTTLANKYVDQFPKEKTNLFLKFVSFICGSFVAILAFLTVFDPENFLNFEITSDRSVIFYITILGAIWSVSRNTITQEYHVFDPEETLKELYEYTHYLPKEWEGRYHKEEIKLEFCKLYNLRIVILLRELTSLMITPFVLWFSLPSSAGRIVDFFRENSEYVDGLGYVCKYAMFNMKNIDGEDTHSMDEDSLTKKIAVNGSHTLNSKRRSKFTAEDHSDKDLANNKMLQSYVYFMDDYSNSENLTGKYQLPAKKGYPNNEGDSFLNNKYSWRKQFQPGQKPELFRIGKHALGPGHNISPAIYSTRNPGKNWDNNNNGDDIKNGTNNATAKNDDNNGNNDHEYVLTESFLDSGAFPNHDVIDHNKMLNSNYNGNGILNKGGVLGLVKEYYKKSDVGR

Binder | binding
B1 | binds
B2 | binds
B3 | binds
B4 | binds
B5 | binds
B6 | no binding
B7 | no binding
B8 | no binding
B9 | no binding

molecular target: T2, Atg9-PA (S. cerevisiae) (UniProt Q12142); experiment: co-IP; PA-tagged bait (Atg9-PA or PA-Atg19) precipitated on IgG-Sepharose from spheroplast lysate; proteins overexpressed with a CUP1 promoter in an atg11∆ strain; GFP-Atg11 detected with anti-GFP
T2 sequence: T1 sequence

Binder | binding
B10 | no binding
B11 | no binding
